Assay results reported in patent US20260217692A1 (Ascentage Pharma (Suzhou) Co., Ltd., priority 2023, published 2026).
Where a name gives a salt, the structure may show the parent alone. The source gives many values for each of these; only a part stands here.

What was measured:
Type in all cases: physicochemical
[1] = Polymorph screening test, heating and cooling method (crystal form by XRPD); details: mesylate screening, dissolved at 50° C., cooled to 4° C.
From the text: (§1) The results are as follows:

[2] = Polymorph screening test, suspension method (crystal form by XRPD after stirring in solvent); details: mesylate screening, 3 days
[3] = Polymorph screening test, volatilization method (crystal form by XRPD); details: mesylate screening
[4] = Polymorph screening test, poor solvent / anti-solvent method (crystal form by XRPD); details: mesylate screening, stirred 5 days
From the text: as §1

- Crystal form (XRPD) ([1]; 1,4-Dioxane): Clear solution
- Crystal form (XRPD) ([1]; Acetone): Crystal form A
- Crystal form (XRPD) ([1]; Acetone-water 1:1): Clear solution
- Crystal form (XRPD) ([1]; Acetonitrile): Crystal form B
- Crystal form (XRPD) ([1]; Acetonitrile-water 1:1): Clear solution
- Crystal form (XRPD) ([1]; Ethanol): Clear solution
- Crystal form (XRPD) ([1]; Isopropanol): Crystal form A
- Crystal form (XRPD) ([1]; Methanol): Crystal form B
- Crystal form (XRPD) ([1]; Methanol-water 1:1): Clear solution
- Crystal form (XRPD) ([1]; Tetrahydrofuran): Clear solution
- Crystal form (XRPD) ([1]; Water): Crystal form B
- Crystal form (XRPD) ([2]; suspension in 2-Methyltetrahydrofuran, 25° C.): Crystal form A
- Crystal form (XRPD) ([2]; suspension in 2-Methyltetrahydrofuran, 50° C.): Crystal form A
- Crystal form (XRPD) ([2]; suspension in Acetone, 25° C.): Crystal form A
- Crystal form (XRPD) ([2]; suspension in Acetone, 50° C.): Crystal form D
- Crystal form (XRPD) ([2]; suspension in Acetonitrile, 25° C.): Crystal form B
- Crystal form (XRPD) ([2]; suspension in Acetonitrile, 50° C.): Crystal form C
- Crystal form (XRPD) ([2]; suspension in Cyclohexane, 25° C.): Crystal form A
- Crystal form (XRPD) ([2]; suspension in Cyclohexane, 50° C.): Crystal form A
- Crystal form (XRPD) ([2]; suspension in Dichloromethane/acetonitrile (v/v, 1:1), 25° C.): Clear solution
- Crystal form (XRPD) ([2]; suspension in Dichloromethane/acetonitrile (v/v, 1:1), 50° C.): No solid sample
- Crystal form (XRPD) ([2]; suspension in Dichloromethane/ethyl acetate (v/v, 1:1), 25° C.): Crystal form A
- Crystal form (XRPD) ([2]; suspension in Dichloromethane/ethyl acetate (v/v, 1:1), 50° C.): No solid sample
- Crystal form (XRPD) ([2]; suspension in Dichloromethane/tetrahydrofuran (v/v, 1:1), 25° C.): Crystal form A
- Crystal form (XRPD) ([2]; suspension in Dichloromethane/tetrahydrofuran (v/v, 1:1), 50° C.): No solid sample
- Crystal form (XRPD) ([2]; suspension in Ethanol, 25° C.): Crystal form A
- Crystal form (XRPD) ([2]; suspension in Ethanol, 50° C.): Crystal form A
- Crystal form (XRPD) ([2]; suspension in Ethyl acetate, 25° C.): Crystal form A
- Crystal form (XRPD) ([2]; suspension in Ethyl acetate, 50° C.): Crystal form A
- Crystal form (XRPD) ([2]; suspension in Isopropanol, 25° C.): Crystal form A
- Crystal form (XRPD) ([2]; suspension in Isopropanol, 50° C.): Crystal form A
- Crystal form (XRPD) ([2]; suspension in Isopropyl acetate, 25° C.): Crystal form A
- Crystal form (XRPD) ([2]; suspension in Isopropyl acetate, 50° C.): Crystal form A
- Crystal form (XRPD) ([2]; suspension in Methanol, 25° C.): Crystal form B
- Crystal form (XRPD) ([2]; suspension in Methanol, 50° C.): Crystal form B
- Crystal form (XRPD) ([2]; suspension in Methyl acetate, 25° C.): Crystal form A
- Crystal form (XRPD) ([2]; suspension in Methyl acetate, 50° C.): Crystal form A
- Crystal form (XRPD) ([2]; suspension in NMP, 25° C.): Crystal form A
- Crystal form (XRPD) ([2]; suspension in NMP, 50° C.): Crystal form A
- Crystal form (XRPD) ([2]; suspension in n-Hexane, 25° C.): Crystal form A
- Crystal form (XRPD) ([2]; suspension in n-Hexane, 50° C.): Crystal form A
- Crystal form (XRPD) ([3]; slow volatilization at room temperature from 1,4-Dioxane): Glass state
- Crystal form (XRPD) ([3]; slow volatilization at room temperature from Acetone): Glass state
- Crystal form (XRPD) ([3]; slow volatilization at room temperature from Acetone-water 1:1): Crystal form B
- Crystal form (XRPD) ([3]; slow volatilization at room temperature from Acetonitrile): Crystal form B
- Crystal form (XRPD) ([3]; slow volatilization at room temperature from Acetonitrile-water 1:1): Glass state
- Crystal form (XRPD) ([3]; slow volatilization at room temperature from Dichloromethane): Crystal form B
- Crystal form (XRPD) ([3]; slow volatilization at room temperature from Dichloromethane/acetone (v/v, 1:1)): Glass state
- Crystal form (XRPD) ([3]; slow volatilization at room temperature from Dichloromethane/acetonitrile (v/v, 1:1)): Crystal form B
- Crystal form (XRPD) ([3]; slow volatilization at room temperature from Dichloromethane/ethyl acetate (v/v, 1:1)): Crystal form B
- Crystal form (XRPD) ([3]; slow volatilization at room temperature from Dichloromethane/methanol (v/v, 1:1)): Crystal form B
- Crystal form (XRPD) ([3]; slow volatilization at room temperature from Dichloromethane/tetrahydrofuran (v/v, 1:1)): Colloidal
- Crystal form (XRPD) ([3]; slow volatilization at room temperature from Ethanol): Glass state
- Crystal form (XRPD) ([3]; slow volatilization at room temperature from Methanol): Crystal form B
- Crystal form (XRPD) ([3]; slow volatilization at room temperature from Methanol-water 1:1): Glass state
- Crystal form (XRPD) ([3]; slow volatilization at room temperature from Tetrahydrofuran): Colloidal
- Crystal form (XRPD) ([4]; good solvent Dichloromethane, poor solvent 1,4-Dioxane): Crystal form F
- Crystal form (XRPD) ([4]; good solvent Dichloromethane, poor solvent Methyl tert-butyl ether): Crystal forms A + B
- Crystal form (XRPD) ([4]; good solvent Dichloromethane, poor solvent Toluene): Crystal form A
- Crystal form (XRPD) ([4]; good solvent Dichloromethane, poor solvent n-Heptane): Crystal forms A + B
- Crystal form (XRPD) ([4]; good solvent Dimethyl sulfoxide, poor solvent 1,4-Dioxane): Clear solution
- Crystal form (XRPD) ([4]; good solvent Dimethyl sulfoxide, poor solvent Toluene): Clear solution
- Crystal form (XRPD) ([4]; good solvent Dimethyl sulfoxide, poor solvent Water): Clear solution
- Crystal form (XRPD) ([4]; good solvent Methanol, poor solvent 1,4-Dioxane): Clear solution
- Crystal form (XRPD) ([4]; good solvent Methanol, poor solvent Methyl tert-butyl ether): Crystal form B
- Crystal form (XRPD) ([4]; good solvent Methanol, poor solvent Toluene): Clear solution
- Crystal form (XRPD) ([4]; good solvent Methanol, poor solvent Water): Clear solution
- Crystal form (XRPD) ([4]; good solvent N,N-Dimethylformamide, poor solvent 1,4-Dioxane): Clear solution
- Crystal form (XRPD) ([4]; good solvent N,N-Dimethylformamide, poor solvent Methyl tert-butyl ether): Crystal form A
- Crystal form (XRPD) ([4]; good solvent N,N-Dimethylformamide, poor solvent Toluene): Crystal form A
- Crystal form (XRPD) ([4]; good solvent N,N-Dimethylformamide, poor solvent Water): Clear solution
SMILES: Cc1cc(Nc2ncc(Cl)c(Nc3ccccc3S(=O)(=O)C(C)C)n2)c(OC(C)C)cc1C1=CCN(C2CCOCC2)CC1 [one equivalent of mesylate crystal form A]
